Laboratory results taken from PMC12387760.
No constants are given. Whether binding was seen depends on the method and setting. Binding seen in cells or lysates may run through a third protein. Some binding calls cover weakened binding; strength is not graded here. Tags and fused reporters may be left off the sequences shown.

Target: T1, Nucleolar and coiled-body phosphoprotein 1 (NOLC1), Flag-tagged (human) (UniProt Q14978)
T1 sequence: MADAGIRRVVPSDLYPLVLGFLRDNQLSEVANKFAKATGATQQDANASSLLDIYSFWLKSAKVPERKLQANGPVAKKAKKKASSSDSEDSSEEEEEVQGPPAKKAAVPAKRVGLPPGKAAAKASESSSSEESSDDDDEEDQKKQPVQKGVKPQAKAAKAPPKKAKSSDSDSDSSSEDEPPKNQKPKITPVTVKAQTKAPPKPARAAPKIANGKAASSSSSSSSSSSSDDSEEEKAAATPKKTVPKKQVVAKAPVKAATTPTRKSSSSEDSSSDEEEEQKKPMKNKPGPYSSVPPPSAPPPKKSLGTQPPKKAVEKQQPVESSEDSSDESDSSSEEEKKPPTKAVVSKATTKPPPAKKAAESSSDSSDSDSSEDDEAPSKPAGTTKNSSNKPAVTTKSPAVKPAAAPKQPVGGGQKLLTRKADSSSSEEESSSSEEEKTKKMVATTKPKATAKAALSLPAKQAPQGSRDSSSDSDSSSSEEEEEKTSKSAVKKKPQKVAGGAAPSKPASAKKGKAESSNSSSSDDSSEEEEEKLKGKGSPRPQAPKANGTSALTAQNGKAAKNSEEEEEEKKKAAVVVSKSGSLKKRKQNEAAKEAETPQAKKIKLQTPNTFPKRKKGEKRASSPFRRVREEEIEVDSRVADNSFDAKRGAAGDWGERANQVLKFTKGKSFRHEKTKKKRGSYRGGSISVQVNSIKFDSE
Assay: co-IP; HEK-293T cells transfected with the plasmids, lysed 48 hr later in IP lysis buffer; anti-Flag magnetic beads immunoprecipitate NOLC1-Flag; immunoblotting

binding: binds
Substance: p53, HA-tagged (from UniProt P04637 1-393)
